This note sets out measurements from US6482849B1, “Inhibitors of α4β1 mediated cell adhesion” (Tanabe Seiyaku Co., Ltd., priority 1997, dated 2002).

Sequences of proteins named here, by UniProt entry; tags and fusion partners are left off. Residues count along the entry.
UniProt P05556, 21-798 limits assumed: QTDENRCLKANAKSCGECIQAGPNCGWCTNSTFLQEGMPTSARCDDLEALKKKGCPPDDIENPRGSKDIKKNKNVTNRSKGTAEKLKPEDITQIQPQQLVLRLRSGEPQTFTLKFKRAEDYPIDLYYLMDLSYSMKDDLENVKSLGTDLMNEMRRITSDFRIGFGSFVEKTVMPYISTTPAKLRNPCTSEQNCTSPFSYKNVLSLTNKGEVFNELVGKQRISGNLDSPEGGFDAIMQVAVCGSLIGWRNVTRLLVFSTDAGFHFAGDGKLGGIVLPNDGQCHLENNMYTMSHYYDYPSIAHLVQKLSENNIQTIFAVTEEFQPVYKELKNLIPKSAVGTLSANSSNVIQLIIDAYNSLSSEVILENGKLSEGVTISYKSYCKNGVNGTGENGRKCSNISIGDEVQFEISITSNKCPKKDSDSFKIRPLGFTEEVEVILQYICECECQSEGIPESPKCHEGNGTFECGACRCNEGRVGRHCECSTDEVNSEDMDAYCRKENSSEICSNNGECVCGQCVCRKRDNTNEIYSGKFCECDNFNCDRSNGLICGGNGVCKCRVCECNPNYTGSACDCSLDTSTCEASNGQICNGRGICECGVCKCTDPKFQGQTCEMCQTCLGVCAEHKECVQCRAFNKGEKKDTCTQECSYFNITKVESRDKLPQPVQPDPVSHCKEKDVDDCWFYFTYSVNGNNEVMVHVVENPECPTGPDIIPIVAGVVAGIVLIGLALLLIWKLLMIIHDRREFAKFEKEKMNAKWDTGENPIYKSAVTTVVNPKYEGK
UniProt P13612, 34-1032 limits assumed: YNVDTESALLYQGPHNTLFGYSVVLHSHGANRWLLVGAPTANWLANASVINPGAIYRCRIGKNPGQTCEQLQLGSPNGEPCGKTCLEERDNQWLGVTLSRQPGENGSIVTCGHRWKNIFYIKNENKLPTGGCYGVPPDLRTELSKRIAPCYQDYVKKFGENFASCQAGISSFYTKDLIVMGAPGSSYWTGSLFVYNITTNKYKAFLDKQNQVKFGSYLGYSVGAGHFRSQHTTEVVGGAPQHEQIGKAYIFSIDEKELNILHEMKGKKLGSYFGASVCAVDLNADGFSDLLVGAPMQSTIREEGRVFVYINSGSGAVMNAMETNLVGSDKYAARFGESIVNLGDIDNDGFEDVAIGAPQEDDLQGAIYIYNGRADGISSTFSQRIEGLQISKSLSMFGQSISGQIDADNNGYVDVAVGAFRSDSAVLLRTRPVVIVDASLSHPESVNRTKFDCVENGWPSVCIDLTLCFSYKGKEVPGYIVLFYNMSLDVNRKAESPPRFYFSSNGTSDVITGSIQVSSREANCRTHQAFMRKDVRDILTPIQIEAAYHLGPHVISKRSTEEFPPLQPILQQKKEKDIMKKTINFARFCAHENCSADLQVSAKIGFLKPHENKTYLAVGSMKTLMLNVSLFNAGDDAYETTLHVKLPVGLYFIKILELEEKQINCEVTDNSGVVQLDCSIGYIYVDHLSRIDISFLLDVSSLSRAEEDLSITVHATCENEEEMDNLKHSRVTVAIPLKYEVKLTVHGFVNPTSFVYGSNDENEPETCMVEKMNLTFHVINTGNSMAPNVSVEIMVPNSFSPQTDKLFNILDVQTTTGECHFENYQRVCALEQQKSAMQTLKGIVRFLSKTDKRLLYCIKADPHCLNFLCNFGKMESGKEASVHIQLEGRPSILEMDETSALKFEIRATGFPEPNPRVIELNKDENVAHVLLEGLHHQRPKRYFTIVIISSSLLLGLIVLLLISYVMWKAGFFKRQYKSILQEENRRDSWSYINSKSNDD

Each structure is given as a SMILES string. Structures were worked out from names or drawings and are uncertain. Some results are limits rather than exact numbers.

Test [1] deals with α4β1 integrin (Jurkat T-cell adhesion to IL-1 stimulated endothelial cell monolayers) (Homo sapiens, UniProt P05556+P13612). The test is described as follows: Jurkat-Endothelial Cell Adhesion Assay (Jurkat EC). The following applies: read-out: IC50 Jurkat EC; Jurkat cells on IL-1 stimulated HUVEC monolayers. As to the method: The following assay established the activity of the present compounds in inhibiting β1-mediated cell adhesion in a representative in vitro system. This assay measures the adhesive interactions of a T-cell line, Jurkat, known to express the α4β1 integrin, to endothelial monolayers in the presence of test compounds. The test compounds were added in increasing concentrations to T-cells and then the T-cell compound mixture was added to IL-1 stimulated endothelial cell monolayers. The plates were incubated, washed and the percentage of attached cells was quantitated. […] Human umbilical vein endothelial cells were purchased from Clonetics (San Diego, Calif.) at passage number 2. […]
Confluent endothelial monolayers, grown in 96-well tissue culture plates, were stimulated for 4 hr. at 37° C. with 0.1 ng/ml (˜50 U/ml) recombinant IL-1 (Amgen, Thousand Oaks, Calif.). […] Following this incubation, the monolayers were washed twice with PBS containing 1 mM calcium chloride and 1 mM magnesium chloride and the plates were read using a Millipore Cytofluor 2300 (Marlboro, Mass.). Fluorescence in each well was measured as Arbitrary Fluorescence Units and percent adhesion in the absence of compound was adjusted to 100% and the % adhesion in the presence of compound was calculated. Monolayers were also fixed in 3% paraformaldehyde and evaluated microscopically to verify the adhesion. […]

Test [2] concerns the target α4β1 integrin (Jurkat cell adhesion to immobilized CS-1 derived peptide CLHPGEILDVPST) (Homo sapiens, UniProt P05556+P13612). Kind of test: Jurkat-CS-1 Assay. The following applies: read-out: IC50 Jurkat CS-1; Jurkat cells on CS-1 peptide coated plates. As to the method:
The CS-1 derived peptide, CLHPGEILDVPST, and the scrambled control peptide, CLHGPIELVSDPT, were synthesized on a Beckman 990 synthesizer using t-Boc methodology. The peptides were immobilized onto microtiter plates using the heterobifunctional crosslinker 3-(2-pyridyldithio)propionic acid N-hydroxysuccinimide ester (SPDP) as reported by Pierschbacher et al., Proc. Natl. Acad. USA, 80:1224-1227 (1983). Microtiter plates were coated with 20 μg/ml HSA for 2 hr. at room temperature, washed once with PBS and derivatized with 10 μg/ml SPDP for 1 hr. After washing, 100 μl of a 100 μg/ml cysteine containing peptide solution which had been recently dissolved was added to the wells and allowed to crosslink to the plates overnight at 4° C. Unbound peptide was removed from plates by washing with PBS. To block non-reacted sites, the plates are coated with 100 μl of a 2.5 mg/ml BSA solution in PBS for 1 hr. at 37° C. […]
Following this incubation the plates were washed once with PBS and the attached cells were fixed with 3% paraformaldehyde in PBS and stained with 0.5% toluidine blue in 3.7% formaldehyde. The cells were stained overnight at room temperature and the optical density at 590 nm of toluidine blue stained cells was determined using a vertical pathway spectrophotometer to quantitate attachment (VMAX Kinetic Microplate Reader, Molecular Devices, Menlo Park, Calif.). […]

As usually defined, the IC50 is the concentration that inhibits the measured activity by half.

`CC1(C)[C@@H](C(=O)N[C@@H](Cc2ccc(OCc3ccc(Cl)c(Cl)c3)cc2)C(=O)O)CC[C@@]1(C)C(=O)O`: the IC50 in test [1] fell in the range of 5000 to 10000 nM.

Consider `CC1(C)[C@@H](C(=O)N[C@@H](Cc2ccc(NS(=O)(=O)c3c(Cl)cccc3Cl)cc2)C(=O)O)CC[C@@]1(C)C(=O)O`, for which the 50% inhibitory concentration (IC50) was less than 800 nM in test [1] and 80 to 500 nM in test [2].
